Assay results: patent US20160279175A1, “METHODS FOR REDUCING DEVELOPMENT OF RESISTANCE TO ANTIBIOTICS” (REGENTS OF THE UNIVERSITY OF MINNESOTA, priority 2015, published 2016)
Read-outs that look alike come from different tables or passages of the source. At least one compound was matched to its structure with a doubt left.

Test system: vancomycin-resistant E. faecium
Assay type: cell-based, Enterococcus faecium
Conditions: for activity of antibiotic alone against E. faecium: clinically relevant concentrations: 50 μg/mL streptomycin, 100 μg/mL ampicillin, 30 μg/mL rifampicin
Description: L. lactis containing pNZCA3 was grown overnight in BHI. Cells were then re-inoculated in fresh BHI at an OD600 of 0.07-0.1. Because BHI contains ˜0.15 M NaCl, no additional salt was added for induction. Cells were then grown ˜6 hours then cell-free culture supernatant was obtained by centrifugation of culture at 12,000×g at 4° C. for 10 min, filtered through 0.2 μm pore-size filters (Whatman Int. Ltd., Maidstone, UK), and stored at −20° C. until use.
E. faecium was grown overnight in BHI at 37° C. and L. lactis-pNZCA3 was grown in BHI at 32° C. E. faecium was then inoculated at an OD600 of ˜0.06 into 5 ml fresh BHI broth, and allowed to grow to an OD600 of ˜0.1. For antibiotic experiments, 50 μg/mL streptomycin (Chem-Implex Int'l Inc., Wood Dale, Ill., U.S.A.), 100 μg/mL ampicillin (Sigma), or 30 μg/mL rifampicin (Gilbert et al., 2013, The Sanford Guide to Antimicrobial Therapy 2013 43 Pocth Edition|Rent 9781930808744|11930808747. Antimicrob. Ther.) were added to the fresh BHI broth. Cultures were then supplemented with 10% of the previously obtained supernatant or 10% of L. lactis-pNZCA3 culture at an OD600 of ˜0.1 (time=0 hours). […] Samples of the cultures were then taken at different times, serial diluted, and plated (10 μL of each dilution) on GM17 plates containing 5 μg/mL rifampicin (GM17-Rif) or 5 μg/mL chloramphenicol (GM17-Cm) and incubated overnight at 37° C. The following day E. faecium or L. lactis colony forming units (CFU) were counted on GM17-Rif and GM17-Cm plates, respectively.
Data for FIG. 9 represent technical triplicates obtained from one of three individual tests.

With `CO[C@H]1/C=C/O[C@@]2(C)Oc3c(C)c(O)c4c(O)c(c(/C=N/N5CCN(C)CC5)c(O)c4c3C2=O)NC(=O)/C(C)=C\C=C\[C@H](C)[C@H](O)[C@@H](C)[C@@H](O)[C@@H](C)[C@H](OC(C)=O)[C@@H]1C` [rifampicin] the “activity of antibiotic alone against E. faecium” value was “none of these drugs showed significant activity”, the “activity of antibiotic alone against E. faecium” value (listed as Rifampicin) was “no noticeable reduction in E. faecium growth” and the “reduction of E. faecium counts, antibiotic combined with the three peptides” value (combination with Enterocin A, Enterocin P, Hiracin JM79) was “drastically reduced E. faecium and stopped the regrowth of the surviving E. faecium”.
